The whole screen tested about 200,000 compounds, of which about 25 (0.01%) were called active. The inconclusive results got no clear call from the source; some entries with a clear call stand among them for comparison. Calls follow the shape of the dose curve; as a rule, active = well fitted inhibition curve with a large enough effect in the signal ratio, with a control signal flat (not every such curve was filed as active); inconclusive = small, poorly fitted or top-dose-only effect, or effect the other way, or a change in a side signal; inactive = flat fitted curve, though single readings scatter; the % refers to the signal ratio. Potencies of inconclusive entries are doubtful fits and often do not repeat.
Test: qHTS Assay for Modulators of Lamin A Splicing
Settings: HeLa LMNA splicing GFP/RFP minigene ratio, 48 h; ratio change, negative = inhibition: at 46.1 µM (top of the series) unless noted
Outline: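 S3 HeLa stable clones carrying a lamin A-EGFP splicing minigene plus DsRed2 were seeded at 600 cells/well in Opti-MEM with 2% FBS, pin-dosed and incubated 48 h at 37°C. Acumen cytometry (488 nm) gave the GFP/RFP total-intensity ratio.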
% is scaled to controls: 0 for no effect and ±100 for the full control effect; potency is read from the fitted curve at half-maximal effect.

SMILES | ratio change, negative = inhibition | Potency
Cc1cccc(CCNC(=O)c2ccc3c(c2)N(Cc2ccccc2F)C(=O)c2ccccc2S3)c1 | inconclusive: -10.5% [at 46 µM] | –
Cc1ccc(-c2nc3ccccc3s2)cc1NC(=S)NC(=O)c1ccccc1 | inactive | –
COC(=O)c1c(N2C(=O)[C@H]3[C@@H](C2=O)[C@]2(C(=O)Nc4c(C)cccc42)N2CCC[C@@H]32)sc(C)c1C | inconclusive: -40.8% | –
CCc1cccc(C)c1NC(=O)Cn1ccn(-c2cccc(OC)c2)c(=O)c1=O | inactive | –
O=C(Nc1ccccc1C(=O)NCCN1CCOCC1)c1ccc(Cl)cc1Cl | inconclusive: 34.8% [at 46 µM] | –
CC(C)N(C(=O)CSc1nnc(CSc2ncccn2)n1C)C(C)C | inconclusive: -4.48% [at 46 µM] | –
Cc1ccc2nc(/C(C#N)=C\c3ccc(N4CCCCC4)c([N+](=O)[O-])c3)[nH]c2c1 | inconclusive: -17.7% | –
Nn1c(SCCOc2ccc(Cl)cc2)nnc1-c1cccnc1 | inactive | –
CCc1nc2oc3cc(OC)ccc3c(=O)c2c(=O)n1Cc1ccco1 | inactive | –
Cc1cc(=O)oc2cc(OCc3ccc(C(=O)OCC(=O)Nc4ccc(N(C)C)cc4)cc3)ccc12 | inactive: -8.68% [at 9.22 µM] | –
COc1ccc(-c2nc(-c3ccc4c(c3)OCO4)[nH]c2-c2ccc(OC)cc2)cc1 | inconclusive: -37.7% | –
CC(C)Oc1ccc(C(=O)N(Cc2ccco2)c2ccccn2)cc1 | inactive | –
COC(=O)CSc1nc2c(c(-c3ccco3)c1C#N)CCCC2 | inactive | –
O=C(Nc1nc2ccc(S(=O)(=O)N3CCCC3)cc2s1)C1CCCCC1 | inconclusive: -24.4% | –
Cc1ccc2nc(N3CCC(C(=O)N4CCN(c5cccc(Cl)c5)CC4)CC3)[nH]c2c1 | inactive | –
Cc1ccc(/C=N/NC(=O)c2cc(C3CC3)nc3ccccc23)o1 | – | inconclusive: 11.2 µM [falling, partial curve]
CCOC(=O)CC(=O)CSc1ncnc2c1cnn2-c1ccccc1 | inactive | –
CCOc1ccc2nc(N/C(N)=N/C(=S)Nc3ccc(OC)cc3)nc(C)c2c1 | inconclusive: -44.9% [at 46 µM] | –
CCCn1c2c(c(=N)c3c1CCC3)CCCC2 | – | inconclusive: 6.31 µM [fluorescent, partial curve]
Cc1ccccc1Oc1ccc(-c2nc(N)nc(N)n2)cc1 | inconclusive: 36.5% | –
CSc1nc2ccc(NC(=O)c3ccc(=O)n(C)n3)cc2s1 | – | inconclusive: 35.5 µM [rising, single point]

Part of the list above, set out differently.

| SMILES | ratio change, negative = inhibition | Potency |
| --- | --- | --- |
| CC(C)Oc1ccc(C(=O)N(Cc2ccco2)c2ccccn2)cc1 | inactive | – |
| CCOc1ccc2nc(N/C(N)=N/C(=S)Nc3ccc(OC)cc3)nc(C)c2c1 | inconclusive: -44.9% [at 46 µM] | – |

Next structures follow:

SMILES | ratio change, negative = inhibition | Potency
O=C(NCc1ccccc1Cl)c1ccc(CSCc2ccccc2Cl)o1 | inactive | –
COc1ccccc1OC(C)C(=O)Nc1ccc(-c2nc3ccccc3s2)cc1 (centres undefined) | inactive | –
CCC(c1nnnn1Cc1ccco1)N(Cc1ccccc1OC)Cc1cc2cc(C)ccc2[nH]c1=O (centres undefined) | inconclusive: 20% | –
Cc1ccc(-n2nnnc2-c2cnc(-c3cccnc3)nc2C(F)(F)F)cc1 | inactive | –
Cc1ccc(-c2csc(-c3ccncc3)n2)cc1 | inconclusive: 31.5% [at 46 µM] | –
CCn1c(CNc2ccc(Cl)cc2)nnc1SCc1ccc(Cl)cc1 | – | inconclusive: 35.5 µM [falling, single point]
CCCC(CCC)C(=O)Nc1ccc2c(c1)N(C(=O)CCN1CCN(C)CC1)c1ccccc1CC2 | inconclusive: -0.509% [at 46 µM] | –
CC1CN=C2C(C(=O)Nc3ccccc3)=C(O)CC(c3ccccc3)N21 (centres undefined) | inconclusive: -4.84% | –
CC(C)Cc1csc(NC(=O)c2ccc(F)cc2)c1C(=O)O | – | inconclusive: 35.5 µM [falling, single point]
CC(NC(=O)CCSCc1ccccc1F)c1ccccc1 (centres undefined) | inactive | –
O=C(NCC(c1cccnc1)N1CCc2ccccc21)c1cccc(C(F)(F)F)c1 (centres undefined) | inconclusive: -35.2% [at 46 µM] | –
CCN1C(=O)CC(N2CCC(Nc3ccc(OC)cc3)CC2)C1=O (centres undefined) | inactive | –
O=C(Nc1cccn2ncnc12)c1cccc(C(F)(F)F)c1 | inconclusive: 15.8% [at 46 µM] | –
CCn1c(SCC(=O)NC(=O)NC(C)(C)C)nc2ccccc21 | inconclusive: 19% [at 46 µM] | –
CCOC(=O)C(=O)Nc1sc(C(=O)N(CC)CC)c(C)c1C#N | – | inconclusive: 35.5 µM [rising, partial curve]
CC1CC1C(=O)Nc1nc(-c2ccccn2)cs1 (centres undefined) | inactive | –
CCCCSc1nnc2[nH]c(=O)cc(N)n12 | inactive | –
CC(=O)c1cccc(NC(=O)CCCOc2ccc(C)cc2)c1 | inconclusive: -44.9% | –
COc1ccc(OC)c(S(=O)(=O)Nc2ccc(O)c(Sc3ncn[nH]3)c2)c1 | inconclusive: 38.6% | –
COc1cccc(C2C(C(=O)Nc3ccc(C)cc3C)=C(C)Nc3c(C(=O)Nc4cccc(C)c4)cnn32)c1OC (centres undefined) | inconclusive: 5.61% [at 46 µM] | –
FC(F)Oc1ccc(NC(=S)NCc2nc3ccccc3[nH]2)cc1 | – | inconclusive: 20 µM [inhibitor, partial curve, poor fit]

SMILES | ratio change, negative = inhibition | Potency
CCOC(=O)c1sc(NC(=O)c2sccc2C)cc1C | inactive | –
CN(CC(=O)Nc1cccc(C(F)(F)F)c1)S(=O)(=O)c1ccc2[nH]c3c(c2c1)CCCC3 | inconclusive: -17.5% [at 46 µM] | –
Cc1csc2nc(COC(=O)c3ccccc3NC(=O)c3ccc(F)cc3)cc(=O)n12 | inactive | –
COc1ccc(Cl)cc1NC(=O)CSc1nccn1Cc1ccco1 | inconclusive: 25.3% [at 46 µM] | –
CC1(C)CC(=O)C2=C(C1)Nc1ccccc1NC2 | inactive: 3.86% [at 9.22 µM] | –
CCN1C(=O)c2cccc3c(S(=O)(=O)Nc4nc(C)cs4)ccc1c23 | inconclusive: -16.1% | –
CC(=O)Oc1cccc(/C=c2\sc3nc(-c4ccco4)nn3c2=O)c1 | inactive | –
C=CCc1c(C)nc(-c2ccccc2)nc1N/N=C/c1ccncc1 | inconclusive: -6.19% [at 46 µM] | –
Cc1cc(C)cc(N2C(=O)N(CC(=O)c3ccc(Br)cc3)c3ccccc3S2(=O)=O)c1 | inconclusive: 7.83% [at 46 µM] | –
O=C(NCc1ccco1)c1scc2c1OCCO2 | inactive | –
CN(C)c1cccc(C(=O)OCC(=O)N2CCc3ccccc3C2)c1 | – | inconclusive: 0.316 µM [activator, full curve, poor fit]
O=c1[nH]c(=S)[nH]c2c1C(c1cc([N+](=O)[O-])c(N3CCOCC3)cc1N1CCOCC1)O2 (centres undefined) | inconclusive: -17% [at 46 µM] | –
COc1ccc(NC(=S)Nc2cccc([N+](=O)[O-])c2)cc1 | inactive | –
O=C(COc1ccc2c(c1)CCC2)N1CCc2ccccc21 | inactive | –
CN(C(=O)CSc1nc(C2CC2)nc2ccccc12)c1nc(-c2ccccc2)cs1 | inconclusive: 7.55% | –
Cc1ccc(C(C#N)N2CCOCC2)cc1 (centres undefined) | inactive | –
CCN1CCC[C@H]1CNC(=O)c1c(OC)ccc(Br)c1OC | inconclusive: -11.1% | –
CC1(C)CC(=O)C(C(=S)Nc2ccccc2)=C(NC2CC(C)(C)NC(C)(C)C2)C1 | inconclusive: 12.1% [at 46 µM] | –
CCOC(=O)c1ccc2ncc(C(=O)OCC)c(NCCCN3CCOCC3)c2c1 | inconclusive: 6.1% | –
c1ccc(CSc2ncn[nH]2)nc1 | inconclusive: 2.28% [at 46 µM] | –
CCC(=O)Nc1cccc(NC(=O)CSc2nnc(C3CC3)n2C)c1 | inconclusive: 12% | –

SMILES | ratio change, negative = inhibition | Potency
Cc1nn(-c2ccccc2)c2nc(C3CC3)cc(C(=O)Nc3cccc(F)c3)c12 | inconclusive: -13.9% [at 46 µM] | –
O=[N+]([O-])c1ccc(S(=O)(=O)N2CCn3cccc3C2c2ccc(Br)cc2)cc1 (centres undefined) | inactive | –
COc1ccc(Nc2ncc3c(n2)CCN(Cc2sccc2C)C3)c(OC)c1 | inactive | –
CCOc1ccc(CNC(=O)C2CCCN(c3nn4cc(-c5ccc(OC)cc5)nc4s3)C2)cc1 (centres undefined) | inconclusive: 38.5% [at 46 µM] | –
Cc1ccccc1OCCNC(=O)/C=C/c1ccc([N+](=O)[O-])cc1 | inconclusive: -17.2% | –
COc1ccc(Cl)cc1NC(=O)COC(=O)/C=C/c1c(C)nn(C2CCS(=O)(=O)C2)c1Cl (centres undefined) | inconclusive: -16.3% | –
C/C(=N\Nc1ccccc1)c1c(O)cc(C)oc1=O | inconclusive: 1.3% [at 46 µM] | –
CCn1c(SCC(=O)Nc2ccc(N3CCOCC3)cc2)nnc1-c1ccc(OC)cc1 | inactive | –
CCOC(=O)c1c(NC(=O)c2ccc(-n3cnnn3)cc2)sc2c1CCCC2 | inactive | –
C=CCn1c(SCc2csc(C)n2)nc2sc3c(c2c1=O)CCCC3 | inconclusive: -42.7% | –
CCN(CC)CCCNC(=O)c1sc2nc3n(c(=O)c2c1C)CCCCC3 | inactive | –
COC(=O)C1=C(C)N(CCc2ccc(OC)c(OC)c2)C(=O)/C1=C\N(C)C | inactive | –
O=C(O)CN1C(=O)SC(Nc2ccccc2C(=O)O)C1=O (centres undefined) | inactive | –
O=C(CSc1nc(O)c(C2CCCCC2)c(=O)[nH]1)Nc1ccc(Cl)cc1 | inconclusive: 3.52% | –
CCc1cccc2c1NC(=O)C2(O)CC(=O)c1cccs1 (centres undefined) | inactive | –
CC1(C)Cc2ccccc2C2=NNC(=O)C2=N1 | inconclusive: 184% [at 46 µM] | –
Cc1ccc(NC(=S)N(CCN2CCOCC2)Cc2cc3cc4c(cc3[nH]c2=O)OCO4)cc1 | inconclusive: -0.853% [at 46 µM] | –
N/C(=N\OC(=O)c1ccc2ccccc2c1)c1ccncc1 | inactive | –
c1ccc(N2CCOCC2)c(Nc2nc3ccccc3n3cnnc23)c1 | inconclusive: 17.4% | –
CC1(C)C(C=C(Cl)Cl)C1C(=O)Nc1ccc([N+](=O)[O-])cc1 (centres undefined) | – | inconclusive: 35.5 µM [falling, single point]
O=C(Oc1ccc(F)cc1C(=O)/C=C/c1cccs1)c1cccc([N+](=O)[O-])c1 | inconclusive: -15.4% | –

2 compounds drawn at random from the list so far:
SMILES | ratio change, negative = inhibition | Potency
CC1(C)Cc2ccccc2C2=NNC(=O)C2=N1 | inconclusive: 184% [at 46 µM] | –
Cc1nn(-c2ccccc2)c2nc(C3CC3)cc(C(=O)Nc3cccc(F)c3)c12 | inconclusive: -13.9% [at 46 µM] | –
